# Test results: publication PMC3961341
# These are yes or no findings as the source states them, for the method shown. In cells and extracts the contact can be indirect. Some binding calls cover weakened binding; strength is not graded here. For some of these results: Tags and fused reporters may be left off the sequences shown.
# T1: Flag-tagged RIG-IΔCTD (RIG-I 1-801) (human) (UniProt O95786)
# T1 sequence: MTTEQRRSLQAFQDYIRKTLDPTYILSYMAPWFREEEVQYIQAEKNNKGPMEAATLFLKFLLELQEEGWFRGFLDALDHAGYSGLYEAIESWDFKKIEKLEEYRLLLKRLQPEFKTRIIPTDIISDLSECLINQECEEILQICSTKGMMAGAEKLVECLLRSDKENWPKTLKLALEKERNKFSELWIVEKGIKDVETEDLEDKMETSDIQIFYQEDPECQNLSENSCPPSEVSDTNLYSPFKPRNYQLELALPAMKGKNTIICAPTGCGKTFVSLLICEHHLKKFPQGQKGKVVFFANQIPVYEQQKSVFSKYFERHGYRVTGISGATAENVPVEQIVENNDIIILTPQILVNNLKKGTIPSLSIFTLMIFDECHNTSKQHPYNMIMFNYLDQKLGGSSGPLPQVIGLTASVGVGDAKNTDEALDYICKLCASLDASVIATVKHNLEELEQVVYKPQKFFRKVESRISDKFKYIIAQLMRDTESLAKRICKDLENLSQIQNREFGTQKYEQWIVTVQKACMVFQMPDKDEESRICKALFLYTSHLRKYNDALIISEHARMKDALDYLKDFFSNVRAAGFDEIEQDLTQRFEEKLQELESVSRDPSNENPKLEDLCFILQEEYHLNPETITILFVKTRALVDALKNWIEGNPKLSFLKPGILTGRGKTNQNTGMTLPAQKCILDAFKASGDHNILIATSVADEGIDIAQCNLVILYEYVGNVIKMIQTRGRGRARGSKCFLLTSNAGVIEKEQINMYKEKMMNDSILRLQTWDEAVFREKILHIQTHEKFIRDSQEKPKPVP
# T2: FLAG-RIG-I stably expressed in rig-i null MEFs (RIG-I null/FLAG-RIG-I) (human) (UniProt O95786)
# T2 sequence: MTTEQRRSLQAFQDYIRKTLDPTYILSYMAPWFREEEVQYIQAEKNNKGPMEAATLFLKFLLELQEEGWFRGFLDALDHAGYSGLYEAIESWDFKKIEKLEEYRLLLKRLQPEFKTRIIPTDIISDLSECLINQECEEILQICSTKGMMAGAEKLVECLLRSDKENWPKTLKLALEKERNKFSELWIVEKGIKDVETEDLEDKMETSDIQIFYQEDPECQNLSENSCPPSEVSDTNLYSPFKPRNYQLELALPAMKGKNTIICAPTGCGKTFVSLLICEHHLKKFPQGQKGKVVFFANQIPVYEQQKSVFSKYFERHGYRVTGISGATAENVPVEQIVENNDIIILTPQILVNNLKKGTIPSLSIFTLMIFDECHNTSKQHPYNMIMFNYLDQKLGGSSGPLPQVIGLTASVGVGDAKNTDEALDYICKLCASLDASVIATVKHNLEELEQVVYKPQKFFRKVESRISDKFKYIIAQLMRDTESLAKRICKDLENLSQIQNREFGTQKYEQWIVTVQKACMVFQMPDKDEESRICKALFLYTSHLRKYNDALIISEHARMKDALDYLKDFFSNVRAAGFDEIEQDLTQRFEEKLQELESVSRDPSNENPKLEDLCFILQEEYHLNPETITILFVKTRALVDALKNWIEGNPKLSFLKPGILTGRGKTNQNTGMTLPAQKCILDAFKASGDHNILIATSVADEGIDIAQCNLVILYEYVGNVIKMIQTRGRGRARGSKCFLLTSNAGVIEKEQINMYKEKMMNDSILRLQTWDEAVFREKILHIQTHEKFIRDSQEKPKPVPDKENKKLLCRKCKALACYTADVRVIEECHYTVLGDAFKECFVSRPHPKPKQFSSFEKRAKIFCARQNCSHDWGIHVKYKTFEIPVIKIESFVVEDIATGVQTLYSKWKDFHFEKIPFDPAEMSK
# T3: DExD/H-box helicase 36 (DHX36), endogenous human (human (endogenous in HEK293T and HeLa)) (UniProt Q9H2U1)
# T3 sequence: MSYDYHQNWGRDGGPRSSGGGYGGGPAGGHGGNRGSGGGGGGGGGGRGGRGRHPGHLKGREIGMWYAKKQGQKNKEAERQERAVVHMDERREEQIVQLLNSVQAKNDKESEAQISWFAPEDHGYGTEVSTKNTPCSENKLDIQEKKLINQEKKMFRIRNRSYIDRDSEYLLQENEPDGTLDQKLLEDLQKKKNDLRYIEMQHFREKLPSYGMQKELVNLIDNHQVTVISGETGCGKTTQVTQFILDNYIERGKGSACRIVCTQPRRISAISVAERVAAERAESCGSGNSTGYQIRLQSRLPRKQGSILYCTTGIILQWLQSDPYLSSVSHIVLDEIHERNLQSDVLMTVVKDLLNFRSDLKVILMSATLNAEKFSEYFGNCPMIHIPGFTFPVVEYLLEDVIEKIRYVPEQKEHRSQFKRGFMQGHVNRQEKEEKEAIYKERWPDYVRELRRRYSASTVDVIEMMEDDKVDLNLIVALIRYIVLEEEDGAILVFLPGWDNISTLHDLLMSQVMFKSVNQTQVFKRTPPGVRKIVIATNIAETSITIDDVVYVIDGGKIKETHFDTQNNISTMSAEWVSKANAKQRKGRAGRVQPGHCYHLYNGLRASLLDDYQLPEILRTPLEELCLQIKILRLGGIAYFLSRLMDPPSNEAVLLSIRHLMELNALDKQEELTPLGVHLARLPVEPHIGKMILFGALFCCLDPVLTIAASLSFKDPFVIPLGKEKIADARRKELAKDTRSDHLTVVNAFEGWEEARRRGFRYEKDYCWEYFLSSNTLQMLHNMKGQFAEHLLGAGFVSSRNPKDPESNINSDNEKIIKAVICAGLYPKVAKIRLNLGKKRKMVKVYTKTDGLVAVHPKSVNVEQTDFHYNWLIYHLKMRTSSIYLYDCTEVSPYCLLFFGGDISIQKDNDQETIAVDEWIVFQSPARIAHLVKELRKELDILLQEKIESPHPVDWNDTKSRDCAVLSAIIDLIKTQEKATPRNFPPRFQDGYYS
# Experiments:
# Assay in all cases: co-IP
# [1] = target: T1, Flag-tagged RIG-IΔCTD (RIG-I 1-801) (human)
# [2] = target: T2, FLAG-RIG-I stably expressed in rig-i null MEFs (RIG-I null/FLAG-RIG-I) (human)
# [3] = target: T3, DExD/H-box helicase 36 (DHX36), endogenous human (human (endogenous in HEK293T and HeLa))
# [4] = target: GFP-tagged RasGAP SH3-domain-binding protein 1 (G3BP1) (human), Q13283; conditions: remark: other sources report otherwise
molecule,measurement,setting,value
"double-stranded RNA (dsRNA)-dependent protein kinase (PKR), endogenous human (from UniProt P19525-1 1-551)",binding,[1],binds
"mouse DHX36, endogenous (protein, UniProt Q8VHK9 1-1001) MSYDYHQSWSRDGGPRGSGQGSSGGGGGGSRGSGGGGGGRGGRGRHPAHLKGREIGLWYAKKQTQKNKEAERQERAVVHMDERREEQIVQLLNSVQAKTDKDSEAQISWFAPEDHGYGTEVSSEKKINSEKKLDNQEKKLLNQEKKTFRITDKSYIDRDSEYLLQENEPNLSLDQHLLEDLQRKKTDPRYIEMQRFRKKLPSYGMQKELVNLINNHQVTVISGETGCGKTTQVTQFILDNYIERGKGSACRIVCTQPRRISAISVAERVATERAESCGNGNSTGYQIRLQSRLPRKQGSILYCTTGIILQWLQSDSRLSSVSHIVLDEIHERNLQSDVLMTVIKDLLHFRSDLKVILMSATLNAEKFSEYFGNCPMIHIPGFTFPVVEYLLEDIIEKIRYVPDQKEHRSQFKRGFMQGHVNRQEKEEKEAIYKERWPAYIKELRTRYSASTVDVLQMMDDDKVDLNLIAALIRYIVLEEEDGAILVFLPGWDNISTLHDLLMSQVMFKSDKFLIIPLHSLMPTVNQTQVFKKTPPGVRKIVIATNIAETSITIDDVVYVIDGGKIKETHFDTQNNISTMSAEWVSKANAKQRKGRAGRVQPGHCYHLYNGLRASLLDDYQLPEILRTPLEELCLQIKILRLGGIAYFLSRLMDPPSNEAVVLSIKHLMELSALDKQEELTPLGVHLARLPVEPHIGKMILFGALFCCLDPVLTIAASLSFKDPFVIPLGKEKIADARRKELAKETRSDHLTVVNAFEGWEEAKRRGFRYEKDYCWEYFLSSNTLQMLHNMKGQFAEHLLGAGFVSSRSPKDPKANINSDNEKIIKAVICAGLYPKVAKIRLNLGKKRKMVKVHTKSDGLVSIHPKSVNVEQTDFHYNWLIYHLKMRTSSIYLYDCTEVSPYCLLFFGGDISIQKDKDQEIIAVDEWIVFQSPERIAHLVKGLRKELDSLLQEKIESPHPVDWDDTKSRDCAVLSAILDLIKTQEKATPRNLPPRSQDGYYS",binding,[2],binds
"RIG-I, endogenous human (protein, UniProt O95786-1 1-925) MTTEQRRSLQAFQDYIRKTLDPTYILSYMAPWFREEEVQYIQAEKNNKGPMEAATLFLKFLLELQEEGWFRGFLDALDHAGYSGLYEAIESWDFKKIEKLEEYRLLLKRLQPEFKTRIIPTDIISDLSECLINQECEEILQICSTKGMMAGAEKLVECLLRSDKENWPKTLKLALEKERNKFSELWIVEKGIKDVETEDLEDKMETSDIQIFYQEDPECQNLSENSCPPSEVSDTNLYSPFKPRNYQLELALPAMKGKNTIICAPTGCGKTFVSLLICEHHLKKFPQGQKGKVVFFANQIPVYEQQKSVFSKYFERHGYRVTGISGATAENVPVEQIVENNDIIILTPQILVNNLKKGTIPSLSIFTLMIFDECHNTSKQHPYNMIMFNYLDQKLGGSSGPLPQVIGLTASVGVGDAKNTDEALDYICKLCASLDASVIATVKHNLEELEQVVYKPQKFFRKVESRISDKFKYIIAQLMRDTESLAKRICKDLENLSQIQNREFGTQKYEQWIVTVQKACMVFQMPDKDEESRICKALFLYTSHLRKYNDALIISEHARMKDALDYLKDFFSNVRAAGFDEIEQDLTQRFEEKLQELESVSRDPSNENPKLEDLCFILQEEYHLNPETITILFVKTRALVDALKNWIEGNPKLSFLKPGILTGRGKTNQNTGMTLPAQKCILDAFKASGDHNILIATSVADEGIDIAQCNLVILYEYVGNVIKMIQTRGRGRARGSKCFLLTSNAGVIEKEQINMYKEKMMNDSILRLQTWDEAVFREKILHIQTHEKFIRDSQEKPKPVPDKENKKLLCRKCKALACYTADVRVIEECHYTVLGDAFKECFVSRPHPKPKQFSSFEKRAKIFCARQNCSHDWGIHVKYKTFEIPVIKIESFVVEDIATGVQTLYSKWKDFHFEKIPFDPAEMSK",binding,[3],binds
"RIG-I, endogenous human, O95786-1 1-925 (protein) MTTEQRRSLQAFQDYIRKTLDPTYILSYMAPWFREEEVQYIQAEKNNKGPMEAATLFLKFLLELQEEGWFRGFLDALDHAGYSGLYEAIESWDFKKIEKLEEYRLLLKRLQPEFKTRIIPTDIISDLSECLINQECEEILQICSTKGMMAGAEKLVECLLRSDKENWPKTLKLALEKERNKFSELWIVEKGIKDVETEDLEDKMETSDIQIFYQEDPECQNLSENSCPPSEVSDTNLYSPFKPRNYQLELALPAMKGKNTIICAPTGCGKTFVSLLICEHHLKKFPQGQKGKVVFFANQIPVYEQQKSVFSKYFERHGYRVTGISGATAENVPVEQIVENNDIIILTPQILVNNLKKGTIPSLSIFTLMIFDECHNTSKQHPYNMIMFNYLDQKLGGSSGPLPQVIGLTASVGVGDAKNTDEALDYICKLCASLDASVIATVKHNLEELEQVVYKPQKFFRKVESRISDKFKYIIAQLMRDTESLAKRICKDLENLSQIQNREFGTQKYEQWIVTVQKACMVFQMPDKDEESRICKALFLYTSHLRKYNDALIISEHARMKDALDYLKDFFSNVRAAGFDEIEQDLTQRFEEKLQELESVSRDPSNENPKLEDLCFILQEEYHLNPETITILFVKTRALVDALKNWIEGNPKLSFLKPGILTGRGKTNQNTGMTLPAQKCILDAFKASGDHNILIATSVADEGIDIAQCNLVILYEYVGNVIKMIQTRGRGRARGSKCFLLTSNAGVIEKEQINMYKEKMMNDSILRLQTWDEAVFREKILHIQTHEKFIRDSQEKPKPVPDKENKKLLCRKCKALACYTADVRVIEECHYTVLGDAFKECFVSRPHPKPKQFSSFEKRAKIFCARQNCSHDWGIHVKYKTFEIPVIKIESFVVEDIATGVQTLYSKWKDFHFEKIPFDPAEMSK",binding,[4],binds
